# Measurements taken from PubChem BioAssay AID504648 (National Center for Advancing Translational Sciences (NCATS), 2011).
# Hit rate of the full screen: of about 390,000 compounds, about 610 (0.16%) were called active. The inconclusive results got no clear call from the source; some entries with a clear call stand among them for comparison. The call rests on the fitted dose curve; in most records, active means well fitted inhibition curve with a large enough effect; inconclusive means small, poorly fitted or top-dose-only effect, or effect the other way, or another doubt; inactive means no such curve, though single readings can be large or run the other way. Where the call is inconclusive, the potency comes from a doubtful curve fit.
# Test: Nrf2 qHTS screen for inhibitors: counterscreen for cytotoxicity
# Conditions: A549 ARE-Fluc cells, CellTiter-Fluor viability, 18-24 h; activity change, negative = cytotoxicity: at 46 µM (top of the series)
# Outline: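 A549 ARE-Fluc cells in 5% FBS OPTI-MEM, 5000 cells/well, rested 2 h then exposed to compounds in concentration-response for 18-24 h at 37 °C. Viability by CellTiter-Fluor fluorescence (Ex 405/Em 525) after 30 min; luciferase luminescence (BugLite, 15 min, RT) read afterwards.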
# On the % scale 0 is the no-effect control and ±100 the full control effect; potency means the concentration at half of the fitted maximal effect.
Structure (SMILES),Potency,"activity change, negative = cytotoxicity"
N#Cc1nc(-c2ccc(F)cc2)oc1NCc1ccccc1,"inconclusive: 3.66 µM [falling, single point]",–
O=C(/C=C/c1cccnc1)/C=C/c1cccnc1,"inconclusive: 18.4 µM [falling, single point]",–
CCOC(=O)C1=C(C)N=c2s/c(=C\c3ccc(C(=O)O)cc3)c(=O)n2C1c1ccc(OC)cc1OC (centres undefined),"inconclusive: 16.4 µM [falling, partial curve, poor fit]",–
CCC(=O)NC(c1cc(Cl)c2cccnc2c1O)C(C)C (centres undefined),–,inactive: -2.77%
CCCN1CNc2c(c(=O)[nH]c(=O)n2CCc2ccc(OC)c(OC)c2)C1,–,inactive: 10.2%
Nc1cccc2cccc([N+](=O)[O-])c12,–,inactive: 0.0148%
CCN1/C(=C2/SC(=S)N(NC(C)=O)C2=O)Sc2ccc(Cl)cc21,"inconclusive: 13 µM [falling, partial curve, poor fit]",–
CN(C)CCCN(C(=O)c1ccc(S(=O)(=O)N2CCCCCC2)cc1)c1nc2ccc(Br)cc2s1,"inconclusive: 29.1 µM [falling, single point]",–
Cc1cc(C)cc(Oc2nc3c(C)cccn3c(=O)c2/C=C(\C#N)c2nc3ccccc3s2)c1,"inconclusive: 18.4 µM [falling, partial curve, poor fit]",–
CCc1ccc(C(=O)c2cn(Cc3ccc(F)cc3)c3cc(OC)c(OC)cc3c2=O)cc1,active: 20.6 µM,–
CC(C)C[C@H](CO)N(Cc1ccccc1)S(=O)(=O)N(Cc1ccccc1)[C@@H](CO)CC(C)C,"inconclusive: 29.1 µM [falling, single point]",–
O=C(Nc1sc2c(c1C(=O)O)CCCC2)c1ccc(Cl)cc1,"inconclusive: 8.2 µM [falling, partial curve, poor fit]",–
N#Cc1ccsc1NC(=O)c1cccc([N+](=O)[O-])c1,"inconclusive: 23.1 µM [falling, partial curve, poor fit]",–
O=C(O)c1cccc(-n2cccc2/C=C2/NC(=O)N(c3cccc(Cl)c3)C2=O)c1,"inconclusive: 20.6 µM [falling, single point]",–
CCOc1ccc(C(=O)Nc2cnn(Cc3ccc(Cl)c(Cl)c3)c2)cc1,"inconclusive: 29.1 µM [falling, single point]",–
COc1ccc(Nc2oc(-c3ccc(COc4ccccc4C)o3)nc2C#N)cc1,–,inactive: -9.05%
CCOc1ccc(/C=C/[N+](=O)[O-])c2ccccc12,"inconclusive: 29.1 µM [falling, single point]",–
CN(C)c1ccc(CNC(=O)CN2CCSc3ccc(S(=O)(=O)N(C)C)cc32)cc1,–,inactive: 0.133%
O=C(Nc1ccc(Br)cc1)C1CCCN1S(=O)(=O)c1ccc(F)cc1 (centres undefined),–,inactive: -6.17%
CN(C)c1ccc(/C=C/c2c([N+](=O)[O-])c(=O)n(C)c(=O)n2C)cc1,"inconclusive: 11.6 µM [falling, partial curve, poor fit]",–

Structure (SMILES),Potency,"activity change, negative = cytotoxicity"
C=CCOC(=O)C1=C[C@@H](c2coc3ccccc3c2=O)C[C@@H](OCc2ccc(CO)cc2)O1,"inconclusive: 18.4 µM [falling, partial curve]",–
CCN(CC)CCCNc1ncnc2c1cnn2-c1ccc(C)c(C)c1,"inconclusive: 18.4 µM [activator, partial curve, poor fit]",–
COc1ccc(OCC(O)Cn2c(NCCO)nc3c2c(=O)n(C)c(=O)n3C)cc1 (centres undefined),–,inactive: -6.39%
Cc1ccc([N+](=O)[O-])cc1S(=O)(=O)Nc1ccc(-c2ccc(N3CCCC3)nn2)cc1,"inconclusive: 20.6 µM [falling, partial curve]",–
C#CCOCCOCCOCCNc1nc(N2CCN(C(=O)CCCCCCCCCCNC(=O)[C@@H](CCC(=O)O)n3cc(CCCCCN)nn3)CC2)nc(N2CCN(C(=O)CCCCCCCCCCNC(=O)[C@H](CCCCN)n3cc(C[C@@H](C)CC)nn3)CC2)n1,"inconclusive: 25.9 µM [falling, single point]",–
C#CCOCCOCCOCCNc1nc(N2CCN(C(=O)CCCCCCCCCCNC(=O)[C@@H](CCSC)n3cc(CCO)nn3)CC2)nc(N2CCN(C(=O)CCCCCCCCCCNC(=O)[C@H](CO)n3cc(CCCCCN)nn3)CC2)n1,"inconclusive: 29.1 µM [falling, single point]",–
O=C(CSc1nc2ccccc2[nH]1)Nc1cccc(S(=O)(=O)N2CCOCC2)c1,"inconclusive: 14.6 µM [falling, partial curve, poor fit]",–
COc1cccc(NC(=O)C23CCC(C)(C(=O)O2)C3(C)C)c1 (centres undefined),"inconclusive: 8.2 µM [falling, partial curve, poor fit]",–
Cc1ccc(NC(=O)c2cc(-n3cnnc3)ccc2Cl)cc1,"inconclusive: 23.1 µM [activator, partial curve, poor fit]",–
Cc1[nH]n(-c2ccc(Cl)cc2)c(=O)c1C(=O)c1ccccc1,"inconclusive: 20.6 µM [falling, single point]",–
COc1cccc(C(O)c2nc3ccccc3n2C(C)C)c1OC (centres undefined),"inconclusive: 0.0164 µM [falling, full curve, poor fit]",–
Cc1ccc(NC(=O)CC2S/C(=N/N=C3\CCCc4ccccc43)NC2=O)cc1 (centres undefined),"inconclusive: 32.6 µM [falling, single point]",–
CC1CCN(S(=O)(=O)c2ccc3c(ccc(=O)n3CC(=O)Nc3cccc(F)c3)c2)CC1,–,inactive: 9.51%
CC(=O)N1CCc2c(sc(NC(=O)c3cccc(N4C(=O)CCC4=O)c3)c2C(N)=O)C1,"inconclusive: 23.1 µM [falling, partial curve, poor fit]",–
CCn1c(SCC(=O)Nc2ccc(C(C)=O)cc2)nc2nc3c(cc2c1=O)CCCC3,"inconclusive: 32.6 µM [falling, partial curve, poor fit]",–
c1c2c(cc3sc(N4CCOCC4)nc13)OCO2,–,inactive: -0.462%
O=C(Nc1ccc2c(c1)CCCN2C(=O)c1cccs1)c1c(F)cccc1Cl,–,inactive: -15.7%
CCCCNC(=S)Nc1ccccc1Cc1ccccc1,"inconclusive: 4.61 µM [activator, partial curve, poor fit]",–
Cc1cccc(NC(=O)c2ccc(C3SCC(=O)N3CCc3ccccc3)cc2)c1 (centres undefined),–,inactive: -4.24%

# Copied from the results shown for reference:
Structure (SMILES),Potency,"activity change, negative = cytotoxicity"
C#CCOCCOCCOCCNc1nc(N2CCN(C(=O)CCCCCCCCCCNC(=O)[C@@H](CCC(=O)O)n3cc(CCCCCN)nn3)CC2)nc(N2CCN(C(=O)CCCCCCCCCCNC(=O)[C@H](CCCCN)n3cc(C[C@@H](C)CC)nn3)CC2)n1,"inconclusive: 25.9 µM [falling, single point]",–
C#CCOCCOCCOCCNc1nc(N2CCN(C(=O)CCCCCCCCCCNC(=O)[C@@H](CCSC)n3cc(CCO)nn3)CC2)nc(N2CCN(C(=O)CCCCCCCCCCNC(=O)[C@H](CO)n3cc(CCCCCN)nn3)CC2)n1,"inconclusive: 29.1 µM [falling, single point]",–
O=C(CSc1nc2ccccc2[nH]1)Nc1cccc(S(=O)(=O)N2CCOCC2)c1,"inconclusive: 14.6 µM [falling, partial curve, poor fit]",–
COc1cccc(NC(=O)C23CCC(C)(C(=O)O2)C3(C)C)c1 (centres undefined),"inconclusive: 8.2 µM [falling, partial curve, poor fit]",–
Cc1ccc(NC(=O)c2cc(-n3cnnc3)ccc2Cl)cc1,"inconclusive: 23.1 µM [activator, partial curve, poor fit]",–
Cc1[nH]n(-c2ccc(Cl)cc2)c(=O)c1C(=O)c1ccccc1,"inconclusive: 20.6 µM [falling, single point]",–
COc1cccc(C(O)c2nc3ccccc3n2C(C)C)c1OC (centres undefined),"inconclusive: 0.0164 µM [falling, full curve, poor fit]",–
Cc1ccc(NC(=O)CC2S/C(=N/N=C3\CCCc4ccccc43)NC2=O)cc1 (centres undefined),"inconclusive: 32.6 µM [falling, single point]",–
CC1CCN(S(=O)(=O)c2ccc3c(ccc(=O)n3CC(=O)Nc3cccc(F)c3)c2)CC1,–,inactive: 9.51%
